# Experimental data reported in the supplement of paper PMC7666118.
# Chains of the proteins cited; added tags and fusions are not shown. Lines headed by an entry give the natural chain unless they say otherwise; changes in a name come on top.
# UniProt P32456: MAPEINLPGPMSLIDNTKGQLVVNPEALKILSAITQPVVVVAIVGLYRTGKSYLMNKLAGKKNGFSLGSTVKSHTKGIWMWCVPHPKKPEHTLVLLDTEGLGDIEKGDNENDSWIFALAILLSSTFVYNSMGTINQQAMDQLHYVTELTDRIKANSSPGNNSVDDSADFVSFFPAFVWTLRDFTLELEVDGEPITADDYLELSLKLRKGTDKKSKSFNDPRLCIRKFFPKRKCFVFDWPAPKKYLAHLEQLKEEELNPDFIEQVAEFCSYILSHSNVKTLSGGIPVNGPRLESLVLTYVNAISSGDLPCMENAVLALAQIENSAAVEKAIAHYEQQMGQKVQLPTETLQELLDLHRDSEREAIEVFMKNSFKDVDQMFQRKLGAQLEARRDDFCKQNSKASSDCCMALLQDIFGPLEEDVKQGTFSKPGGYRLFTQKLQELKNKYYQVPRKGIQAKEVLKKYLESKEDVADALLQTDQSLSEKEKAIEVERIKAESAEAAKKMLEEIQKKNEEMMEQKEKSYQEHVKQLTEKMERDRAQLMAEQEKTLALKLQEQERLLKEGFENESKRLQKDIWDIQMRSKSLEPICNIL
# UniProt Q9H5X1: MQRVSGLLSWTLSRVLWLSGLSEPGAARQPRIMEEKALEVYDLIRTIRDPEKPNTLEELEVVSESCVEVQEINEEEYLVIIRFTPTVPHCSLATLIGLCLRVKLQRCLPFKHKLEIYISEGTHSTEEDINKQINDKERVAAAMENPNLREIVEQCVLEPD
# UniProt Q96SL8: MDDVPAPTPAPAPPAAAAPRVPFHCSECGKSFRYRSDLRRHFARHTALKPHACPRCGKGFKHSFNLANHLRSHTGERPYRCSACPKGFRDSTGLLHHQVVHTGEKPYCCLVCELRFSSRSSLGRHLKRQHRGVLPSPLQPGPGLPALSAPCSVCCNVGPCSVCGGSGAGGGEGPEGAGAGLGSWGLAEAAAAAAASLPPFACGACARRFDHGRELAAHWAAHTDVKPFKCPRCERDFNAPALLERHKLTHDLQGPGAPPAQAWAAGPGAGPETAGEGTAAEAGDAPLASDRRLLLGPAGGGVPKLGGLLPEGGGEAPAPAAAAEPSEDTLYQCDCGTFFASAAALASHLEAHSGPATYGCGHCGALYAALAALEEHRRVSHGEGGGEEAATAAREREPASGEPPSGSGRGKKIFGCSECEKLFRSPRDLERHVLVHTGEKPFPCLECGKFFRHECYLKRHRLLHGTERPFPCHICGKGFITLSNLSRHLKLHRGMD
# UniProt Q9UKT8: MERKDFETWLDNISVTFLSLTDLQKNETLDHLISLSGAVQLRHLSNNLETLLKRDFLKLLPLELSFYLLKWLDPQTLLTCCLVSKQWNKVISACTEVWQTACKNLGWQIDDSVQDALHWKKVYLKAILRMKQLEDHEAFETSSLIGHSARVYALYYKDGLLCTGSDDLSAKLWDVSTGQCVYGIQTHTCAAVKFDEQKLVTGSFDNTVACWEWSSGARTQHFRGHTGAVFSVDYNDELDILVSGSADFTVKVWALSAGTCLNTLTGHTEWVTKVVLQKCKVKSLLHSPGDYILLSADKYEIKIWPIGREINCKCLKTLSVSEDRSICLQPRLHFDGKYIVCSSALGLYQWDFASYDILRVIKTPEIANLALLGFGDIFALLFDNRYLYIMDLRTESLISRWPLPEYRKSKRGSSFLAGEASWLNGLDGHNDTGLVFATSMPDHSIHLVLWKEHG
# UniProt Q9UKT5: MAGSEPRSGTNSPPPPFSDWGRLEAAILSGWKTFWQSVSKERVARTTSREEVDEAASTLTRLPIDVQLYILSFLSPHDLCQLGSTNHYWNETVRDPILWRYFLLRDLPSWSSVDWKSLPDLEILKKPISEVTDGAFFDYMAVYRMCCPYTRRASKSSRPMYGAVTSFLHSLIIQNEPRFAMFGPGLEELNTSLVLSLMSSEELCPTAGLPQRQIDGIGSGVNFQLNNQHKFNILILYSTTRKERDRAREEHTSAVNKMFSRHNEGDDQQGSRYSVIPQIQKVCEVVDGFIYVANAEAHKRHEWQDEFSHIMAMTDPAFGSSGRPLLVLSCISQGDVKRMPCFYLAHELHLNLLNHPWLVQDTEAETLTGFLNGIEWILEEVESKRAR
# UniProt Q96K12: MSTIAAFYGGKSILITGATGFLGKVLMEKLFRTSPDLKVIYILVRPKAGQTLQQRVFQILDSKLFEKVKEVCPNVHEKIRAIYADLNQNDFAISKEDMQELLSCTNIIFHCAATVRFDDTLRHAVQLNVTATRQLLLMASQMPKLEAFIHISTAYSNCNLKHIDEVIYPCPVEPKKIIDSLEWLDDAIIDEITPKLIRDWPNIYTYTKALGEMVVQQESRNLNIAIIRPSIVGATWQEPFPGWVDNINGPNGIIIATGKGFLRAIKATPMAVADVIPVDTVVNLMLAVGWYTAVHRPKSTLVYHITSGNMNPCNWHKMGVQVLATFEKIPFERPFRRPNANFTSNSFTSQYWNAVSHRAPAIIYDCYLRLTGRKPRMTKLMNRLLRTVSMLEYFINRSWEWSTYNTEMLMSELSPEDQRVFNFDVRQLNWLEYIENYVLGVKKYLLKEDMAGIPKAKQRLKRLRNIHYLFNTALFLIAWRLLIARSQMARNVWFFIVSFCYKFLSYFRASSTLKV
# UniProt Q01415: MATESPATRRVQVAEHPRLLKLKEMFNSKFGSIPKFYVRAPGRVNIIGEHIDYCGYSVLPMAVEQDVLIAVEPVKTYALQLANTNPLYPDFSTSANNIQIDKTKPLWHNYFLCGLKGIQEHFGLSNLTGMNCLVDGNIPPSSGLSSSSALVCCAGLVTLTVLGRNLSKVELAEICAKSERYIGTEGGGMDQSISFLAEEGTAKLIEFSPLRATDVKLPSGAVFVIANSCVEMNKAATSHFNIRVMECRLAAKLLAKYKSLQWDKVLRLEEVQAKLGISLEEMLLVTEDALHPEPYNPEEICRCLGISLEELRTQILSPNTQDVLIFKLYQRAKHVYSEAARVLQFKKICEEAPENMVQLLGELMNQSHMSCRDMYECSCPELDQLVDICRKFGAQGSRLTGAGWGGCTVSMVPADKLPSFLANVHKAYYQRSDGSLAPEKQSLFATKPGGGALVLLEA
# UniProt O14772: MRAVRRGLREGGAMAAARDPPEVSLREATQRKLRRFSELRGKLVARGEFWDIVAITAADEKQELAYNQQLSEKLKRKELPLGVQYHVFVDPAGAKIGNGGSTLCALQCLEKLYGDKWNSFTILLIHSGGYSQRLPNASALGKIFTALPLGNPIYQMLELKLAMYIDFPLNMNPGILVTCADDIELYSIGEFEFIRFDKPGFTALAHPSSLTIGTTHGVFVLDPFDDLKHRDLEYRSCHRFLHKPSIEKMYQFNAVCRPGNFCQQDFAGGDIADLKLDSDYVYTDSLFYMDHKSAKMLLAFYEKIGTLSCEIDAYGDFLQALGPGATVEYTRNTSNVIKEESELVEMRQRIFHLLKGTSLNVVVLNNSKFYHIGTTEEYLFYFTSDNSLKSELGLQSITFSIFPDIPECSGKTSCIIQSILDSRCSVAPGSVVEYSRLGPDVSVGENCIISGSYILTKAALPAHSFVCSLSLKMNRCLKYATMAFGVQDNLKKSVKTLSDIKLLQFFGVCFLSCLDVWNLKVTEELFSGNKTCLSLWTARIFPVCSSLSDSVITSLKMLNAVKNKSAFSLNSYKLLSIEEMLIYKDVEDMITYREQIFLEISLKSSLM
# UniProt O14976: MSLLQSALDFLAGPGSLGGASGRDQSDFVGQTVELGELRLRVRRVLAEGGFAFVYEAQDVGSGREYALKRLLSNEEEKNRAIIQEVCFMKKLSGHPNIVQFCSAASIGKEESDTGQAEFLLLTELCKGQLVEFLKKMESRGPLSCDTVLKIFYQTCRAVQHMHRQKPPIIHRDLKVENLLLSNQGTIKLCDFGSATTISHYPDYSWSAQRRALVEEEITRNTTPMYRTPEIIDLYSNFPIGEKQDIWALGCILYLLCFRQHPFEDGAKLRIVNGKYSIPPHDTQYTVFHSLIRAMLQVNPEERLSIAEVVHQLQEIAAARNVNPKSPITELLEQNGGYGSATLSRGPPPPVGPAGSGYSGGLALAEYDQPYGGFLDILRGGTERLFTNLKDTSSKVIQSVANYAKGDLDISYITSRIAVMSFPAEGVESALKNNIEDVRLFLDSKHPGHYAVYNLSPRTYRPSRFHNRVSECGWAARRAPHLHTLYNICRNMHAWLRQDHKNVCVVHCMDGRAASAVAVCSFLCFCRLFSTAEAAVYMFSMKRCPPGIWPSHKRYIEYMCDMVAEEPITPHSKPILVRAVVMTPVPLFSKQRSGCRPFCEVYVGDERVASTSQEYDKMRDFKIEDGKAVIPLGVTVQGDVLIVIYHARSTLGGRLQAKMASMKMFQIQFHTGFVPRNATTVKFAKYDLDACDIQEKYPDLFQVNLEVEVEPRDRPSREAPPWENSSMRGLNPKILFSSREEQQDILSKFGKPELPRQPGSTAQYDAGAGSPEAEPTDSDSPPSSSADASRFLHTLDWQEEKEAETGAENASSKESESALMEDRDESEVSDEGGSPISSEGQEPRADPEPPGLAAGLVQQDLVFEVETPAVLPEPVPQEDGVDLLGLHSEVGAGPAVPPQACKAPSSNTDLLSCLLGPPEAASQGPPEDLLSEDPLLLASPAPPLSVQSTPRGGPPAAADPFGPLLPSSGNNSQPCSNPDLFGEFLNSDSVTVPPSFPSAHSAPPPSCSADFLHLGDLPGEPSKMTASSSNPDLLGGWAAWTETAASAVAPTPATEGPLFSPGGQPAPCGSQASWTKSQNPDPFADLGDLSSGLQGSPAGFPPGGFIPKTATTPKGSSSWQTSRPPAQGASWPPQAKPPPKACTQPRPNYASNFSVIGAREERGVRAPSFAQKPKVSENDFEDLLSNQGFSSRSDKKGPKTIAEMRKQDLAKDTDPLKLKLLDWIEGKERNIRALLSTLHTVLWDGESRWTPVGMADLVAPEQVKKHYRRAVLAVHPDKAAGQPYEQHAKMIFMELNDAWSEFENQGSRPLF
# UniProt Q9HAV0, whole entry: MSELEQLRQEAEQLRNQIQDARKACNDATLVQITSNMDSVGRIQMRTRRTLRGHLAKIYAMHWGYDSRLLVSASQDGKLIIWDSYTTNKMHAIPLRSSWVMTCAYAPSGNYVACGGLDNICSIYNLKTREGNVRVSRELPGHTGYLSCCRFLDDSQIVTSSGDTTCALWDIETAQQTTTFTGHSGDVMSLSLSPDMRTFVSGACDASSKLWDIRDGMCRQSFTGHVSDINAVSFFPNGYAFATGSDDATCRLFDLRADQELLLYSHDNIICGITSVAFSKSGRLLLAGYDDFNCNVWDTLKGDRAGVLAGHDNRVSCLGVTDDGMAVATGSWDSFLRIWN
# UniProt O75494: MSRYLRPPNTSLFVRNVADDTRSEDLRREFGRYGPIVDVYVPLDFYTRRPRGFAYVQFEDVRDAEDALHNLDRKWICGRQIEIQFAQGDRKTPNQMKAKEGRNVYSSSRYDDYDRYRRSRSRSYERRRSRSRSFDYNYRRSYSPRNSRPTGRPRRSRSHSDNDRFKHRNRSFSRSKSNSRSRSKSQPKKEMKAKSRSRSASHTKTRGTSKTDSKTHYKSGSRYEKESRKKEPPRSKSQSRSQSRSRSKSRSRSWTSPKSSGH
# UniProt A0FGR8: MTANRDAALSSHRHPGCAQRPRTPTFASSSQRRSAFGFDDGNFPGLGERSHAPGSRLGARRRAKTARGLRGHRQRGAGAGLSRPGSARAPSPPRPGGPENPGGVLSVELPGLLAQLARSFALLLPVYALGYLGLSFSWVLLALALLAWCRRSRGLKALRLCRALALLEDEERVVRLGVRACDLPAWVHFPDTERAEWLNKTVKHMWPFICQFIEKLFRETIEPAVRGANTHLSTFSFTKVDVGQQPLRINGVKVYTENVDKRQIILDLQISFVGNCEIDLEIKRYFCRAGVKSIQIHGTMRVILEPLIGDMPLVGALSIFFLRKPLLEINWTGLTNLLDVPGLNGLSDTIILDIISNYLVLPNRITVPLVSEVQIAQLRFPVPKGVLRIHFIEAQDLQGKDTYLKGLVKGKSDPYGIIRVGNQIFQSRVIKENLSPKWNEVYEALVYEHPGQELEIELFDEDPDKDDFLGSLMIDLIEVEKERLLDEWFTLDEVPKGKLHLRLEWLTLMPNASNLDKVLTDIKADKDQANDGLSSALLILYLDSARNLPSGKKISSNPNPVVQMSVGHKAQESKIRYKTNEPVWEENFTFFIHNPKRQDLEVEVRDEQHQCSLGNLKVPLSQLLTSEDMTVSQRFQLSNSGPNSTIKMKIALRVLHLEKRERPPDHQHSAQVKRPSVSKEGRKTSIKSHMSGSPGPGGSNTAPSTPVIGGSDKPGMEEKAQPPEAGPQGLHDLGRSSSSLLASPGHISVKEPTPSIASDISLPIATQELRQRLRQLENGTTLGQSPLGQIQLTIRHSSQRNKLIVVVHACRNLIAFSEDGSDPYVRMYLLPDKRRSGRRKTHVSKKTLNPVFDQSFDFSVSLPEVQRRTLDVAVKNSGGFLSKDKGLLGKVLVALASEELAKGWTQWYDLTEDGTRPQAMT
# This is one part of the list.
# Compound: COc1ccc(Cn2ccc3cc(C)c(C(=O)NO)cc32)cc1
# Experiment: dose-dependent thermal stabilisation call (2D-TPP, DLPTP, 10% FDR) (binary (1 = stabilised)); higher = stabilised by the compound
# Conditions: system: HL-60 intact cells; concentration range 0.04-10 µM
# Description: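 2D thermal proteome profiling in intact HL-60 cells treated with BRD-3811 (0, 0.04, 0.29, 2, 10 uM) for 90 min at 37 C, then heated 3 min at one of 12 temperatures (42-63.9 C). Soluble protein was quantified by TMT10 MS. The value is the DLPTP call of the paper: dose-dependent thermal stabilisation over all temperatures at 10% FDR (F-test of a dose-response against a flat model); one experiment, one call per tested protein.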
row,Target,dose-dependent thermal stabilisation call
1,GCC2 (UniProt Q8IWJ2),inactive: 0
2,GBP2 (UniProt P32456),inactive: 0
3,FAM96A (UniProt Q9H5X1),inactive: 0
4,FKBP4 (UniProt Q02790),inactive: 0
5,FLII (UniProt Q13045),inactive: 0
6,FLG (UniProt P20930),inactive: 0
7,FBXO38 (UniProt Q6PIJ6),inactive: 0
8,FIZ1 (UniProt Q96SL8),inactive: 0
9,FBXW2 (UniProt Q9UKT8),inactive: 0
10,GLTP (UniProt Q9NZD2),inactive: 0
11,FIGNL1 (UniProt Q6PIW4),inactive: 0
12,FXR1 (UniProt P51114),inactive: 0
13,FARSB (UniProt Q9NSD9),inactive: 0
14,FERMT3 (UniProt Q86UX7),inactive: 0
15,FOXRED2 (UniProt Q8IWF2),inactive: 0
16,FNTA (UniProt P49354),inactive: 0
17,FOXP1 (UniProt Q9H334),inactive: 0
18,FBXO4 (UniProt Q9UKT5),inactive: 0
19,FAM8A1 (UniProt Q9UBU6),inactive: 0
20,FNBP1 (UniProt Q96RU3),inactive: 0

# In a second layout: results already given
row	Target	dose-dependent thermal stabilisation call
6	FLG (UniProt P20930)	inactive: 0
7	FBXO38 (UniProt Q6PIJ6)	inactive: 0

# (next part)

row,Target,dose-dependent thermal stabilisation call
1,GCDH (UniProt Q92947),inactive: 0
2,FASTKD5 (UniProt Q7L8L6),inactive: 0
3,FAR2 (UniProt Q96K12),inactive: 0
4,GALK2 (UniProt Q01415),inactive: 0
5,FPGT (UniProt O14772),inactive: 0
6,GAK (UniProt O14976),inactive: 0
7,GLTSCR2 (UniProt Q9NZM5),inactive: 0
8,FYCO1 (UniProt Q9BQS8),inactive: 0
9,GALNT7 (UniProt Q86SF2),inactive: 0
10,FHL3 (UniProt Q13643),inactive: 0
11,FLJ45032,inactive: 0
12,GNB4 (UniProt Q9HAV0),inactive: 0
13,FUSIP1 (UniProt O75494),inactive: 0
14,FARSA (UniProt Q9Y285),inactive: 0
15,FBXO6 (UniProt Q9NRD1),inactive: 0
16,FAM62B (UniProt A0FGR8),inactive: 0
17,FNBP4 (UniProt Q8N3X1),inactive: 0
18,FKBP7 (UniProt Q9Y680),inactive: 0
19,GGA1 (UniProt Q9UJY5),inactive: 0
20,FASTKD2 (UniProt Q9NYY8),inactive: 0
